{
  "source": "paper PMC5370002",
  "target": "T1, inhibitor of apoptosis stimulating protein of p53 (iASPP) (human (endogenous in Huh-7 and Hep3B)) (UniProt Q8WUF5)",
  "T1 sequence": "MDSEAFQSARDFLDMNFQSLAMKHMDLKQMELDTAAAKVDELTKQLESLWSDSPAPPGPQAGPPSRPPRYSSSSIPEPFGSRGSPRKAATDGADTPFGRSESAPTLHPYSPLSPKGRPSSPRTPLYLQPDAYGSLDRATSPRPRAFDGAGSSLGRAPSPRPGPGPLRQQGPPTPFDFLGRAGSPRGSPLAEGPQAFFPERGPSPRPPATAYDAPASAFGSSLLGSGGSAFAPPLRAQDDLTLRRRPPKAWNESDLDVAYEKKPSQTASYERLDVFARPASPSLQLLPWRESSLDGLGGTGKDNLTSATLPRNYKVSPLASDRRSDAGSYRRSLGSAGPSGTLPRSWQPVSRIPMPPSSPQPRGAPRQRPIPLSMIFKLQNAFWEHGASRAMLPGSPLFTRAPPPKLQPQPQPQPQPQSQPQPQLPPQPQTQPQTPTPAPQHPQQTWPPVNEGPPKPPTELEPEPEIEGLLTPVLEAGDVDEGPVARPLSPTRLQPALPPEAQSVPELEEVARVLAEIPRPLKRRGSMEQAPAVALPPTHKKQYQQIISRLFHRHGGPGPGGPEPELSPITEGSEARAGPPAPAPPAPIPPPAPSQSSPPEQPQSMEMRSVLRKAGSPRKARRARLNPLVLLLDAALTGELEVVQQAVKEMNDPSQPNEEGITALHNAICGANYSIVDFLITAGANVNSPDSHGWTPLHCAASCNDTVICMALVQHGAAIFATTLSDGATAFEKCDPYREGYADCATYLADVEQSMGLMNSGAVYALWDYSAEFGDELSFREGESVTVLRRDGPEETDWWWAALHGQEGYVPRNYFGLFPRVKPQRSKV",
  "experiment": "co-IP; iASPP immunoprecipitated with anti-iASPP antibody from 500 ug total protein lysate of Huh-7 and Hep3B cells, with or without NT4-37AA/rAAV; Protein G Sepharose, 4°C; Western blot",
  "note": "No constants are given. Whether binding was seen depends on the method and setting. Binding seen in cells or lysates may run through a third protein. Some binding calls cover weakened binding; strength is not graded here.",
  "data": [
    {"binder": "p73 (protein, UniProt O15350 1-636) MAQSTATSPDGGTTFEHLWSSLEPDSTYFDLPQSSRGNNEVVGGTDSSMDVFHLEGMTTSVMAQFNLLSSTMDQMSSRAASASPYTPEHAASVPTHSPYAQPSSTFDTMSPAPVIPSNTDYPGPHHFEVTFQQSSTAKSATWTYSPLLKKLYCQIAKTCPIQIKVSTPPPPGTAIRAMPVYKKAEHVTDVVKRCPNHELGRDFNEGQSAPASHLIRVEGNNLSQYVDDPVTGRQSVVVPYEPPQVGTEFTTILYNFMCNSSCVGGMNRRPILIIITLEMRDGQVLGRRSFEGRICACPGRDRKADEDHYREQQALNESSAKNGAASKRAFKQSPPAVPALGAGVKKRRHGDEDTYYLQVRGRENFEILMKLKESLELMELVPQPLVDSYRQQQQLLQRPSHLQPPSYGPVLSPMNKVHGGMNKLPSVNQLVGQPPPHSSAATPNLGPVGPGMLNNHGHAVPANGEMSSSHSAQSMVSGSHCTPPPPYHADPSLVSFLTGLGCPNCIEYFTSQGLQSIYHLQNLTIEDLGALKIPEQYRMTIWRGLQDLKQGHDYSTAQQLLRSSNAATISIGGSGELQRQRVMEAVHFRVRHTITIPNRGGPGGGPDEWADFGFDLPDCKARKQPIKEEFTEAEIH", "values": [
      {"measurement": "binding", "result": "binds"}
    ]}
  ]
}
